Assay results from publication PMC11464796.
Results are given in words; binding and its absence hold for the method and conditions named. In cells and extracts the contact can be indirect. A yes stands for co-enrichment or nearness to the bait. Other partners may have been found. A no says only that the protein was not detected with the bait. Tags and fused reporters may be left off the sequences shown.

Chains of the proteins cited; added tags and fusions are not shown. Lines headed by an entry give the natural chain unless they say otherwise; changes in a name come on top.
UniProt A0R561: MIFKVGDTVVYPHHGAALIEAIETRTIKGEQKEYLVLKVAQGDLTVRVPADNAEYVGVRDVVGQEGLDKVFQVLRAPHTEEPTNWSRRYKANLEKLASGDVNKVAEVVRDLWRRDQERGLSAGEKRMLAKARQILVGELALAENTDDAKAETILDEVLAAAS
UniProt A0QW02: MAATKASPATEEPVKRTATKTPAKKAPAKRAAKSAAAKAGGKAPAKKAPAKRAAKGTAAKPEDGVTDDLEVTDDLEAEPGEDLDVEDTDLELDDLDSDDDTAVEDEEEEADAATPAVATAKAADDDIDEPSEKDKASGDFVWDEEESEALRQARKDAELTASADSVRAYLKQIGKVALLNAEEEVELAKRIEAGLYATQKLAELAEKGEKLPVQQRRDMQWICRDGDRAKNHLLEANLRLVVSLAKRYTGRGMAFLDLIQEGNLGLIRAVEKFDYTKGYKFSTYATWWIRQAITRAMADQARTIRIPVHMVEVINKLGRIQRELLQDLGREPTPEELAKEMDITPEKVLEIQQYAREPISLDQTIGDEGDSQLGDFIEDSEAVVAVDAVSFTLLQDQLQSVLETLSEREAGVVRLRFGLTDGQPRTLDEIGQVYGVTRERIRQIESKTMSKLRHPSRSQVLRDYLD
UniProt A0QZ11: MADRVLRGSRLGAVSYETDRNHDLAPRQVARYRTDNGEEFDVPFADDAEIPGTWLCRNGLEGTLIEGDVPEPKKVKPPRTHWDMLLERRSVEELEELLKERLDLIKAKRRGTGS
UniProt A0QVZ5: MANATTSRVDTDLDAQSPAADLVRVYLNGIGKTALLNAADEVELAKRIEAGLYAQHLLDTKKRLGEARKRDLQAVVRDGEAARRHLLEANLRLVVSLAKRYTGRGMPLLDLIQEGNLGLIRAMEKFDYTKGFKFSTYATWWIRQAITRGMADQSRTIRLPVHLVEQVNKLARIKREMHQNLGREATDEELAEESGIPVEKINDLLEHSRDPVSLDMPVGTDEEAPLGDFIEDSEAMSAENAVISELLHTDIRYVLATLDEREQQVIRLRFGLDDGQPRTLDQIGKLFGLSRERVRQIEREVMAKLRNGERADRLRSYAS

Molecular target: T1, Msm HelD-FLAG (Mycobacterium smegmatis) (UniProt A0QUE0)
T1 sequence: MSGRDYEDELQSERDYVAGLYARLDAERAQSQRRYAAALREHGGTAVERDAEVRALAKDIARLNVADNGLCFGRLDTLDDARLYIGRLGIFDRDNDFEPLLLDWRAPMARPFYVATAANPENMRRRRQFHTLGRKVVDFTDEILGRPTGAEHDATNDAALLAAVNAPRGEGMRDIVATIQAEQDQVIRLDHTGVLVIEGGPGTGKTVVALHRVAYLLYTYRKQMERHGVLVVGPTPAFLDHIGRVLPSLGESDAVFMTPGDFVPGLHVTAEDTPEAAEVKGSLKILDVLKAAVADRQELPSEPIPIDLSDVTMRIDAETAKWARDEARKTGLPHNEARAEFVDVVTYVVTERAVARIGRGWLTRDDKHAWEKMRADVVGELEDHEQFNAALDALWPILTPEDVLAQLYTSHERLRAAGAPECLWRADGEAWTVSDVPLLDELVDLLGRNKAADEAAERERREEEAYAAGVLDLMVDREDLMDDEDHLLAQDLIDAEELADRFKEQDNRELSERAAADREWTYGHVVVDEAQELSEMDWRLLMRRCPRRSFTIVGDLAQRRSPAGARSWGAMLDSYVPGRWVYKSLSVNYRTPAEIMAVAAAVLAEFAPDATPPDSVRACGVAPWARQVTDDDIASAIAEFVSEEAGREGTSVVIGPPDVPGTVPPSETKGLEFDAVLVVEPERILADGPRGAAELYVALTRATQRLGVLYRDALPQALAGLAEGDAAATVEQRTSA
Test: affinity purification with mass spectrometry; HelD-FLAG captured from M. smegmatis lysate (exponential and stationary phase) on anti-FLAG M2 agarose, 14 h, benzonase-treated and untreated lysates, eluted with 3xFLAG peptide; No-Tag strain as control; SDS-PAGE and LC-MS/MS

Row | Substance | binding
1 | Msm CarD (endogenous) (from UniProt A0R561 1-162) | no binding
2 | Msm σ^A (endogenous) (from UniProt A0QW02) | binds
3 | Msm RbpA (endogenous) (from UniProt A0QZ11 1-114) | binds
4 | Msm σ^B (endogenous) (from UniProt A0QVZ5 1-319) | binds
